Experimental data taken from article PMC7862700.
This is a selection; strong and weak results do not stand in their true shares. For some assays here: At the low end of the ranking, values are background and their order means little.

How the values were obtained:
Experiment in all cases: DAPPL (digital affinity profiling via proximity ligation, sequencing)
Conditions in all cases: 10 mM Tris-HCl pH 7.5, 50 mM NaCl, 1 mM DTT, 4% glycerol, room temperature, 30 min; GST-TFs on glutathione beads, 16-mer random dsDNA library, 0.1% …; high values mean tight binding; double strand, one strand shown; scale: fold enrichment (6-mer frequency, TF over GST control)
[1] = molecular target: T1, ELK1 (UniProt P19419)
T1 sequence: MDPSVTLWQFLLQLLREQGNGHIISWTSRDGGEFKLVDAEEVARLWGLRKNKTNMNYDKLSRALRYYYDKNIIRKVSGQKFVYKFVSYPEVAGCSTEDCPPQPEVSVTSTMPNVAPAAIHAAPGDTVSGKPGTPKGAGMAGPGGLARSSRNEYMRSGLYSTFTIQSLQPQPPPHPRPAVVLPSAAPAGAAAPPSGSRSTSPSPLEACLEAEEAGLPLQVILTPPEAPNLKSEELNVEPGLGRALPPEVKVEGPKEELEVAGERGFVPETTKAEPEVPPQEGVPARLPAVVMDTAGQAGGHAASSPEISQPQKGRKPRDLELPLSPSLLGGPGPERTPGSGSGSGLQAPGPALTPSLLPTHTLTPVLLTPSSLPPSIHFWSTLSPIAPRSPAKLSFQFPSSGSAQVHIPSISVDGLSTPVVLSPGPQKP

[2] = molecular target: T2, ELK3 (UniProt P41970)
T2 sequence: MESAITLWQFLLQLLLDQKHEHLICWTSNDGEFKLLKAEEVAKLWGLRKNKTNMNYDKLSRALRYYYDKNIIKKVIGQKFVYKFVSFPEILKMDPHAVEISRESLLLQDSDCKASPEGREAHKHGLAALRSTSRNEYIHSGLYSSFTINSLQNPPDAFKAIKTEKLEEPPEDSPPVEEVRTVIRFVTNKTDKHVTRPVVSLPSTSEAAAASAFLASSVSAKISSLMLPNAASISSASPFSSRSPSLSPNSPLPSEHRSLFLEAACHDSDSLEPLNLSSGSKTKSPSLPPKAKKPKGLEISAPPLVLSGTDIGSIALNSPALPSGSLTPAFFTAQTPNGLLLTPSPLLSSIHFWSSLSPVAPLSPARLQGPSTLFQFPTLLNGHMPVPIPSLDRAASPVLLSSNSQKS

[3] = molecular target: T3, ETS2 (UniProt P15036)
T3 sequence: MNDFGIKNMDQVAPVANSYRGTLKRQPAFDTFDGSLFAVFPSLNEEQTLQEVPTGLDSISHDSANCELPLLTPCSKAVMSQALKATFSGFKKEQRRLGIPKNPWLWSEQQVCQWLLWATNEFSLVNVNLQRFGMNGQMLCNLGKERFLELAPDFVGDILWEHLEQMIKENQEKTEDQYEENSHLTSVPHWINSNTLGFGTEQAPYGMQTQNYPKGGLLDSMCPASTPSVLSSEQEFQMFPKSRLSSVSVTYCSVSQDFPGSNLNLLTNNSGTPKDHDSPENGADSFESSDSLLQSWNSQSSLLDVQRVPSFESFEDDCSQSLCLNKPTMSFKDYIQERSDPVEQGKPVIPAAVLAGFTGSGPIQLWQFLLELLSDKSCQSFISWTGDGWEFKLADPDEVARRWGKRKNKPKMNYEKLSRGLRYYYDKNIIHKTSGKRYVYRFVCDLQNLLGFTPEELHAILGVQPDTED

[4] = molecular target: T4, ETV3 (UniProt P41162-2)
T4 sequence: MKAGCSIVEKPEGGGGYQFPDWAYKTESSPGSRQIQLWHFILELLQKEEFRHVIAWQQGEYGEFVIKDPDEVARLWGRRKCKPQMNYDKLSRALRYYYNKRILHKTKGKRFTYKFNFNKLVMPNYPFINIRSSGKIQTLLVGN

Question: What does the source list for TTCGTT?
Answer: binding signal [1]: 1.4; binding signal [2]: 1.24

Question: TGCTCA was tested. Which binding signal [1] did it give?
Answer: 1.28

Question: What about the binding signal [2] of the same sequence?
Answer: 1.19

Question: Which binding signal [1] does the source give for TTCTCA here?
Answer: 1.31

Question: What about the binding signal [2] of the same sequence?
Answer: 1.27

Question: How did the binding signal [1] turn out when CCCTCG was run?
Answer: 1.34

Question: And the binding signal [2]?
Answer: 1.15

Question: What does the source list for AACAAT?
Answer: binding signal [1]: 1.29; binding signal [2]: 1.32

Question: Which results are given for CGTTAC?
Answer: binding signal [1]: 1.09; binding signal [2]: 1.21

Question: TGGTAT was tested. Which binding signal [1] did it give?
Answer: 1.45

Question: And the binding signal [2]?
Answer: 1.24

Question: Which binding signal [3] does the source give for TTGCCT here?
Answer: 1.24

Question: With TTTGGC as the sequence, how does the binding signal [3] read?
Answer: 1.18

Question: Which results are given for ATACCT?
Answer: binding signal [1]: 1.18; binding signal [2]: 1.08

Question: For GAAAGA, which binding signal [1] is on record?
Answer: 0.979

Question: And the binding signal [2]?
Answer: 0.918

Question: For CTACTC, which binding signal [1] is on record?
Answer: 1.36

Question: What about the binding signal [2] of the same sequence?
Answer: 1.46

Question: For GATACT, which binding signal [1] is on record?
Answer: 1.01

Question: And the binding signal [2]?
Answer: 1.09

Question: TTGAAT was tested. Which binding signal [3] did it give?
Answer: 1.06

Question: TTCTTT was tested. Which binding signal [3] did it give?
Answer: 1.32

Question: And the binding signal [4]?
Answer: 1.2

Question: AATTCC was tested. Which binding signal [3] did it give?
Answer: 1.86

Question: And the binding signal [4]?
Answer: 2.09
